{"source": "paper PMC11247094", "binders": {"B1": {"name": "Respiratory syncytial virus matrix (M) protein (protein, UniProt P0DOE7 1-256)", "chain": "METYVNKLHEGSTYTAAVQYNVLEKDDDPASLTIWVPMFQSSMPADLLIKELANVNILVKQISTPKGPSLRVMINSRSAVLAQMPSKFTICANVSLDERSKLAYDVTTPCEIKACSLTCLKSKNMLTTVKDLTMKTLNPTHDIIALCEFENIVTSKKVIIPTYLRSISVRNKDLNTLENITTTEFKNAITNAKIIPYSGLLLVITVTDNKGAFKYIKPQSQFIVDLGAYLEKESIYYVTTNWKHTATRFAIKPMED"}}, "target": "Respiratory syncytial virus matrix (M) protein (respiratory syncytial virus, strain rA2-mK+ (parent strain A2)) (UniProt P0DOE7)", "experiment": "cryo-EM structure; whole-cell cryo-electron tomography and sub-tomogram averaging of the M layer in intact RSV rA2-mK+ virions from BEAS-2B cells; 38,771 sub-tomograms; 4.6 Å; PDB 4v23 M dimers fitted", "note": "Results are given in words; binding and its absence hold for the method and conditions named. Some entries that bind do so weakly or less than the wild type.", "data": [{"binder": "B1", "values": [{"measurement": "binding", "result": "binds"}]}]}
